One compound from patent US8962830B2, “Protein kinase inhibitors and methods of treatment” (The Walter and Eliza Hall Institute of Medical Research, priority 2010, dated 2015) can be followed below.

Protein sequences, listed by entry. Tags and fused reporters are not part of them.
UniProt P12931, whole entry: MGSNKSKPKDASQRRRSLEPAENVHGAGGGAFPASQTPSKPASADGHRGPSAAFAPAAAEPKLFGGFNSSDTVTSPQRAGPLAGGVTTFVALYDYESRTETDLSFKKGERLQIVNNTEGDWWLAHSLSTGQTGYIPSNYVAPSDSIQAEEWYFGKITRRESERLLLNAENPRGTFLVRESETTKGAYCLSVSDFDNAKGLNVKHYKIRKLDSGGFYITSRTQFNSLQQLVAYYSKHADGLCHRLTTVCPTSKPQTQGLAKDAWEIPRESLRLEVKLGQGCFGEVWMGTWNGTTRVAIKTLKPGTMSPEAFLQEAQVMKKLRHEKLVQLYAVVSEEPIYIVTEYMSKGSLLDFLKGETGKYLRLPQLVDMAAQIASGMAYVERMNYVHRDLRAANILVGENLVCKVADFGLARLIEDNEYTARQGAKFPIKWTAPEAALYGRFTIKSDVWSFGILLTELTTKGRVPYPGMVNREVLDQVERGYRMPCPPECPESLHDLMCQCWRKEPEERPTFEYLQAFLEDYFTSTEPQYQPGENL

The target in this experiment is Src recombinant enzyme, N-terminally His6 tagged full-length human protein (Homo sapiens, UniProt P12931). Put plainly: SRC kinase inhibition assay (AlphaScreen). In kind it is biochemical. Particulars: read-out: IC50 (SRC); 80 μM ATP, 90 minutes at 30 degree Celsius; tested form: HBr. (Alpha assays give light when donor and acceptor beads are brought close together.)

As a reminder, the IC50 is the midpoint of a concentration-inhibition curve.

Structures were worked out from names or drawings and are uncertain.

In the case of `CC(C)(CN)n1nc(-c2ccc(Cl)cc2)c2c(N)ncnc21`, the IC50 was 100 to 1000 nM.
